Source: PMC3747992
Results are given in words; binding and its absence hold for the method and conditions named. Binding seen in cells or lysates may run through a third protein. Some results given as binding are weak or reduced against the parent protein; the word gives no strength.

Amino acid sequences for entries named in this document (tags omitted).
UniProt P40337: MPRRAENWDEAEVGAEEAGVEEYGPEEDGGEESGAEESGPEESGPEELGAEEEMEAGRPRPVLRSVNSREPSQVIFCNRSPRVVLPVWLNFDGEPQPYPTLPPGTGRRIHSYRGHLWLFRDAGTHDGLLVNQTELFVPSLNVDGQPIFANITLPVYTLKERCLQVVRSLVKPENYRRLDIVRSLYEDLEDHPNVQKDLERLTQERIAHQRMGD

Biological target: von Hippel-Lindau protein (VHL), endogenous (human (endogenous in U937)) (UniProt P40337)
Test: co-IP; IP with anti-VHL antibody from lysates of U937 cells treated with IFN-γ and MG132 for up to 24 h; immunoblot for hnRNP L, VHL, hnRNP A2/B1, DRBP76

B1: heterogeneous nuclear ribonucleoprotein L (hnRNP L), endogenous (protein, UniProt P14866 1-589)
chain: MSRRLLPRAEKRRRRLEQRQQPDEQRRRSGAMVKMAAAGGGGGGGRYYGGGSEGGRAPKRLKTDNAGDQHGGGGGGGGGAGAAGGGGGGENYDDPHKTPASPVVHIRGLIDGVVEADLVEALQEFGPISYVVVMPKKRQALVEFEDVLGACNAVNYAADNQIYIAGHPAFVNYSTSQKISRPGDSDDSRSVNSVLLFTILNPIYSITTDVLYTICNPCGPVQRIVIFRKNGVQAMVEFDSVQSAQRAKASLNGADIYSGCCTLKIEYAKPTRLNVFKNDQDTWDYTNPNLSGQGDPGSNPNKRQRQPPLLGDHPAEYGGPHGGYHSHYHDEGYGPPPPHYEGRRMGPPVGGHRRGPSRYGPQYGHPPPPPPPPEYGPHADSPVLMVYGLDQSKMNCDRVFNVFCLYGNVEKVKFMKSKPGAAMVEMADGYAVDRAITHLNNNFMFGQKLNVCVSKQPAIMPGQSYGLEDGSCSYKDFSESRNNRFSTPEQAAKNRIQHPSNVLHFFNAPLEVTEENFFEICDELGVKRPSSVKVFSGKSERSSSGLLEWESKSDALETLGFLNHYQMKNPNGPYPYTLKLCFSTAQHAS
For B1, the binding was “binds”.
